From PMC8436908
No constants are given. Whether binding was seen depends on the method and setting. In cells and extracts the contact can be indirect. Some entries that bind do so weakly or less than the wild type.

The chains behind the UniProt entries cited, without tags or fusion partners.
UniProt O35864: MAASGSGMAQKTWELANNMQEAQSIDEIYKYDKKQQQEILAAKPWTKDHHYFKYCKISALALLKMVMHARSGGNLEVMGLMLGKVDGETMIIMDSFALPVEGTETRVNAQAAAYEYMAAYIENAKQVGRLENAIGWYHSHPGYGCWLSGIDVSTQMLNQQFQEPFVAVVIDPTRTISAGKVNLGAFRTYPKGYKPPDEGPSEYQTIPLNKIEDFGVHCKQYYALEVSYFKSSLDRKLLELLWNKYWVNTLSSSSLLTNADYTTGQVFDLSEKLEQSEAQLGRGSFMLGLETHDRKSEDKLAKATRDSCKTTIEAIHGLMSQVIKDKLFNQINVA

Biological target: T1, prolactin receptor (PRLR) (mouse (endogenous in GT1-7)) (UniProt Q08501)
T1 sequence: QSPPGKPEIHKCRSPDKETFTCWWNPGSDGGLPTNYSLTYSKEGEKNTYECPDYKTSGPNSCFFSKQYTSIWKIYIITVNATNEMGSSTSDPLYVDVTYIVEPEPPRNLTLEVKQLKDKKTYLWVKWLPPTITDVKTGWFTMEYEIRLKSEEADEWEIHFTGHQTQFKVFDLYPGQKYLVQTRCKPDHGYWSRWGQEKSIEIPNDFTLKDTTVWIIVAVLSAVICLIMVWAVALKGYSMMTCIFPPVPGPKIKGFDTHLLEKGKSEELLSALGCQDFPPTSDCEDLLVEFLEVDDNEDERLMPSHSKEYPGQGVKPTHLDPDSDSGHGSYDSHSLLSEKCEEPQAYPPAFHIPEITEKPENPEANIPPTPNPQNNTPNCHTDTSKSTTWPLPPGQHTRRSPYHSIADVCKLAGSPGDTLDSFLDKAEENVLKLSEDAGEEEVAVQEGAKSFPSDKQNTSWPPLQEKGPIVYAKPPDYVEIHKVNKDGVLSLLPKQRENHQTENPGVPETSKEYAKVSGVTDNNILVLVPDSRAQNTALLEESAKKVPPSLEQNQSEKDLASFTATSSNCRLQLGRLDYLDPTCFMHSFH
Test: co-IP; anti-PRLR antibody (IgG as control) added to RIPA lysate of GT1-7 cells at 4 C overnight, captured on protein A/G-agarose, western blot; cells treated for 72 h with blank CSF (Control), 200 ng/mL PRL (HPRL) or PRL + BSZY-D-containing CSF, with 10 uM MG132

With “CSN5 (from UniProt O35864 1-334) (enzyme)” the binding was “binds”.
